# Data published in US20120178671A1, “INHIBITION OF NFK-B MEDIATED VIRUS REPLICATION WITH SPECIFIC OLIGOSACCHARIDES” (N.V. Nutricia, priority 2009, published 2012).
# For at least one compound, name, drawing or mass did not settle the structure.
# Tests used:
# NF-κB = assay: Screening of oligosaccharides NFK-B inhibiting activity; format: cell-based; details: screening of (oligo)saccharides, Yes/No
# Text: It is hypothesized that the main site of action of the specific nutritional oligosaccharides as mentioned in example 1, is the intestine. […] Screening of oligosaccharides NFK-B inhibiting activity
# HEK293-NFkB-Luc cells = assay: Glutathione assay in HEK293 cells with EPA, AOS and L-cysteine; format: cell-based; details: EPA 25 μM, AOS 1-3 mg/ml, L-cysteine 1 mM, TNFα
structure (smiles),measurement,setting,value
"CC/C=C\C/C=C\C/C=C\C/C=C\C/C=C\CCCC(=O)O [EPA, eicosapentaenoic acid]",NFκB inhibition,NF-κB,showed NFκB inhibition
same,"Cellular glutathione (GSH) levels, result in words",HEK293-NFkB-Luc cells,did not affect GSH levels
